Here are results for 31 targets from the supplement of paper PMC12067093, “Discovery and optimisation of a covalent ligand for TRIM25 and its application to targeted protein ubiquitination” (Chemical Science, 2025).

By UniProt entry, the sequences of proteins in these tests, tags left out. Where a name states a change or a piece, a line headed by the entry shows the natural chain unless it says otherwise.
UniProt Q12979: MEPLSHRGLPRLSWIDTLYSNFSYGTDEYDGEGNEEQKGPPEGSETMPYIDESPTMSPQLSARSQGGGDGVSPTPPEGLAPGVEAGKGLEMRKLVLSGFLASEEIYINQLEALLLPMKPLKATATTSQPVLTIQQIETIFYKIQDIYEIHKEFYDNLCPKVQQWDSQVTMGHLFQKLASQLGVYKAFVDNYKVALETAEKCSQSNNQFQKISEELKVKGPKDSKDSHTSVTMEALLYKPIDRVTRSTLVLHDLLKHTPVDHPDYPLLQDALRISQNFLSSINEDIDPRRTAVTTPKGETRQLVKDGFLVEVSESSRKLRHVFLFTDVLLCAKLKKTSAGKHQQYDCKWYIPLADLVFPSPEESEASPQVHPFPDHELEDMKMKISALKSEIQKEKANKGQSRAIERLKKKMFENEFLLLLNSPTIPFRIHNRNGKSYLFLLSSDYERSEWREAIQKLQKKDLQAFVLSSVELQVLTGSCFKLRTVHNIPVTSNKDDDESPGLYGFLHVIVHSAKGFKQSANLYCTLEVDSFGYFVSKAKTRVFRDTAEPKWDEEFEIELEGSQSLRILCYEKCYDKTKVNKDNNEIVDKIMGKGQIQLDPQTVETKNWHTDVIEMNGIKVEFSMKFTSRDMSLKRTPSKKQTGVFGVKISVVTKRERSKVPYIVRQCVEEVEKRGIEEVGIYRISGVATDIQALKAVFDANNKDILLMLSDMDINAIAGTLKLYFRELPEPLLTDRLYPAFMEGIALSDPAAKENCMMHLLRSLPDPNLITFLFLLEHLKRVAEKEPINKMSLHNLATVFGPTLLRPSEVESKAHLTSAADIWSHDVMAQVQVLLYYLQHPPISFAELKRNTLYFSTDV
UniProt Q9P1F3: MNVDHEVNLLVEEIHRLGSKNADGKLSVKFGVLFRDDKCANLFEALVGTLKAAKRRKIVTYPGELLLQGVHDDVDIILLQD
UniProt Q9NRN7: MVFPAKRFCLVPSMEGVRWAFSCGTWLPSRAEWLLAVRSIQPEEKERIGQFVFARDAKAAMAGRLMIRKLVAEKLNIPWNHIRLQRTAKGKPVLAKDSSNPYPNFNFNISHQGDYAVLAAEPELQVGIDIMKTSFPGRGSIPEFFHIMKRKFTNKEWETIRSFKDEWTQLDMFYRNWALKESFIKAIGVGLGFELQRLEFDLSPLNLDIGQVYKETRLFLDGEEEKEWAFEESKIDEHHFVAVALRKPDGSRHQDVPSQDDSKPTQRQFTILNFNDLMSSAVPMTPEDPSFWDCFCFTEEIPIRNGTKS
UniProt Q9H845: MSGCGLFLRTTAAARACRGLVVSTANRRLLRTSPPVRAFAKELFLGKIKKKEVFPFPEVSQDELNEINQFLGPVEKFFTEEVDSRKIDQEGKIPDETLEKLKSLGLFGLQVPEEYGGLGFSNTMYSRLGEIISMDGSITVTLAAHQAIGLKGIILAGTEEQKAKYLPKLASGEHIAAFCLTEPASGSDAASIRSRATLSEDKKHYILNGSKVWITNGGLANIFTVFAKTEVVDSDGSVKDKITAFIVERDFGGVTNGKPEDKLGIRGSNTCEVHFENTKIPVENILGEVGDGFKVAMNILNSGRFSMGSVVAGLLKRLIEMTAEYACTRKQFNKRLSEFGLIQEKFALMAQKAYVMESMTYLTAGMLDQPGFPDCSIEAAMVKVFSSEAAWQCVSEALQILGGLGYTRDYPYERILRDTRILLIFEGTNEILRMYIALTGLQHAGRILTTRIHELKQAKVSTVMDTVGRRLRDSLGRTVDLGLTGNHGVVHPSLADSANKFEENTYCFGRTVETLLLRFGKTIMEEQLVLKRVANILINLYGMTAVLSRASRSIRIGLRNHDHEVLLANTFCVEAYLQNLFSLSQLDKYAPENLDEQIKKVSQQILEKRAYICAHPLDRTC
UniProt Q9NRG9: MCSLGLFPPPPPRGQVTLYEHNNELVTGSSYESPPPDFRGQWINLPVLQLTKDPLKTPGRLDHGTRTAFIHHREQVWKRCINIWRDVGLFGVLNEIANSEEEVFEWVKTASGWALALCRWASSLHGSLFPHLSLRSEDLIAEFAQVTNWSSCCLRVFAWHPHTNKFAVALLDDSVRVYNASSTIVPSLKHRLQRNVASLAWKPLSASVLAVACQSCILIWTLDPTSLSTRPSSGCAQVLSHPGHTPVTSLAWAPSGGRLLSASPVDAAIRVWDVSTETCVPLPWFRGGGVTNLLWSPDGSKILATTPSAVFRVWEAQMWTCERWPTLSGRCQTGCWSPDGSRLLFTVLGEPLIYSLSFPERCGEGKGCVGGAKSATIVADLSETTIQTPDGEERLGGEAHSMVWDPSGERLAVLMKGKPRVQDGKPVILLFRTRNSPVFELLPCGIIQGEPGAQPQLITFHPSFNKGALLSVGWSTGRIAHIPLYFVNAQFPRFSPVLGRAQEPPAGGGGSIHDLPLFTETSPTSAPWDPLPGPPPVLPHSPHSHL
UniProt P28288: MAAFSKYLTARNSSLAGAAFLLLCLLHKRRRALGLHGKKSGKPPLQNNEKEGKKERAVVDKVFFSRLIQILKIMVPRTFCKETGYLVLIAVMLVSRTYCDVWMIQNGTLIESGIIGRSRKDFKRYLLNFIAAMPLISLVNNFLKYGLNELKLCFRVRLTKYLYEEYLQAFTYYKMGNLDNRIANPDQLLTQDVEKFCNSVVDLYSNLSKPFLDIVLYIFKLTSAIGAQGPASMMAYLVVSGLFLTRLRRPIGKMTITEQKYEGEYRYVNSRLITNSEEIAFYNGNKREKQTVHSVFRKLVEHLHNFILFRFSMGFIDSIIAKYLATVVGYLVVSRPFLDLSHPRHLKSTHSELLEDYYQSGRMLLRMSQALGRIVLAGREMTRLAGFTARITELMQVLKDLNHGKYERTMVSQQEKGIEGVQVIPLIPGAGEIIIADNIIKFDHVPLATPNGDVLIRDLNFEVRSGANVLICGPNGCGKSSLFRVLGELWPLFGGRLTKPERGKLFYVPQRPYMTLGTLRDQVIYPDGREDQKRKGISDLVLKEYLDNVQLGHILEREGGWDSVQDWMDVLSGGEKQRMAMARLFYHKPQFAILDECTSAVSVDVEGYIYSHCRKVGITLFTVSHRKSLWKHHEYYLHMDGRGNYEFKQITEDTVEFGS
UniProt Q6UXT9: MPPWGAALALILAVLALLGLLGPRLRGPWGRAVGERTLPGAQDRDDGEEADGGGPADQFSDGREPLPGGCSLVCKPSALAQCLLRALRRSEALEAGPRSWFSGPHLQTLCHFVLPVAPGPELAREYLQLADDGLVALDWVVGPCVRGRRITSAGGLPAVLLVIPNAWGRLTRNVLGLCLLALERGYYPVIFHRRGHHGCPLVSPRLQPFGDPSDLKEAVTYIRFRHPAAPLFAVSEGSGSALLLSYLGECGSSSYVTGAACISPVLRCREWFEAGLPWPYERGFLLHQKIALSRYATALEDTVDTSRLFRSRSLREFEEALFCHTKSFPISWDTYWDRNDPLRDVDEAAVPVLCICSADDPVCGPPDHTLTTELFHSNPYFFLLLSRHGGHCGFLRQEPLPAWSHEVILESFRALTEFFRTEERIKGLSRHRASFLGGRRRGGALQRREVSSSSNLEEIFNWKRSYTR
UniProt P09110: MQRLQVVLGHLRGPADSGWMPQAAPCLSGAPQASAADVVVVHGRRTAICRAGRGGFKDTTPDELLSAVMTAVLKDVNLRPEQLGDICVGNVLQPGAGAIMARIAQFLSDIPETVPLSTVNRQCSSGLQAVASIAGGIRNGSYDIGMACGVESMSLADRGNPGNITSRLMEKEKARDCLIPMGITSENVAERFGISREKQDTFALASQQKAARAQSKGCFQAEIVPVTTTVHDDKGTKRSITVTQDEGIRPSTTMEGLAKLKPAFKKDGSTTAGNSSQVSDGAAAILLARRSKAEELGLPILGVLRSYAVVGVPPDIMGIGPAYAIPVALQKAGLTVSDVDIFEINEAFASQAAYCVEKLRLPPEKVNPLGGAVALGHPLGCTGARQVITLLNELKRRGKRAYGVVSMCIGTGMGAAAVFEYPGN
UniProt Q96AP0: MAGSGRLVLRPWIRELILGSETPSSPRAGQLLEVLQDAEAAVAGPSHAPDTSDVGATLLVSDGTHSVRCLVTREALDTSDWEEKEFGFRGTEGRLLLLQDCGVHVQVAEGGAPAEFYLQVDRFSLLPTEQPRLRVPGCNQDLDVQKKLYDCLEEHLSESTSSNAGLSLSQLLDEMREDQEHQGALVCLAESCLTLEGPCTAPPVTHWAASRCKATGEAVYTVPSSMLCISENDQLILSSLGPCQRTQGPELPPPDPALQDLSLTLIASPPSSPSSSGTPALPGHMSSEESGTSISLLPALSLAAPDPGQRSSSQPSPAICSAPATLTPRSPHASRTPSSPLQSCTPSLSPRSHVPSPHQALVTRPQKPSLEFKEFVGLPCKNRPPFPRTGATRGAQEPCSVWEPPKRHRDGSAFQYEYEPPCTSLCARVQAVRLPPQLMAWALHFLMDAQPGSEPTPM
UniProt Q8N2K0: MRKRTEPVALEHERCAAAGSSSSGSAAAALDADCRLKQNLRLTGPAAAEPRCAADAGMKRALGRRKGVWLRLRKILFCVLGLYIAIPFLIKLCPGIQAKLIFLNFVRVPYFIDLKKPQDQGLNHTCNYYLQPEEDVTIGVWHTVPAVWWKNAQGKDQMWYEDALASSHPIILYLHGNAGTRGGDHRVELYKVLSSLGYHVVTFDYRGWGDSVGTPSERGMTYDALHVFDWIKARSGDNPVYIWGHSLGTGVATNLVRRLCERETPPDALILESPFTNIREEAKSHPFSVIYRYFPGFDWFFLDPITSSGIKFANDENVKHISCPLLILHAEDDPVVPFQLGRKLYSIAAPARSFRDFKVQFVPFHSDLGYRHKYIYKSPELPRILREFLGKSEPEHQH
UniProt Q9BR61: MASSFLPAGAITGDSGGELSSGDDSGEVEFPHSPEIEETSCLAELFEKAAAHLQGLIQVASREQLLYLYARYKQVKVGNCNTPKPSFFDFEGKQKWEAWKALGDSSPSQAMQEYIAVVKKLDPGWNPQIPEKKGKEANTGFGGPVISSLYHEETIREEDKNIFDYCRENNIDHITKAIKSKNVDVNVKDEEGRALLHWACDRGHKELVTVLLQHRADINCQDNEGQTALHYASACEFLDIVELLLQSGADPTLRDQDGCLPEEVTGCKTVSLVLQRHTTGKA
UniProt Q9UG63: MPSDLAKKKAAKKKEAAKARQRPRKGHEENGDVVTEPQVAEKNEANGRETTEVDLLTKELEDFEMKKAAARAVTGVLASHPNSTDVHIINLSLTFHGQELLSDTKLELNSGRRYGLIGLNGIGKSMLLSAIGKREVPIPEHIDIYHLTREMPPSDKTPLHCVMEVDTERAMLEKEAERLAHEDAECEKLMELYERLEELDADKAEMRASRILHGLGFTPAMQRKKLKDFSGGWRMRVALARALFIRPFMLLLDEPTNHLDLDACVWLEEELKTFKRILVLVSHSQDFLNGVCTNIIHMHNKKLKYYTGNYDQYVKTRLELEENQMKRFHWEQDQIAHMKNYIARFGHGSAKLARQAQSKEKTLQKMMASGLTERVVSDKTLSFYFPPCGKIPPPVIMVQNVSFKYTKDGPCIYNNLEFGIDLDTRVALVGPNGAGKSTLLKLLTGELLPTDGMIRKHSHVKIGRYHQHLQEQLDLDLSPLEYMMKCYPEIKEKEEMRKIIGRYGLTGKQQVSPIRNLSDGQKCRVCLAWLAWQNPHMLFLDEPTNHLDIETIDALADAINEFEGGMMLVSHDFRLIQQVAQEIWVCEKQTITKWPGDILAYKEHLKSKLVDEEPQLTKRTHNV
UniProt Q99798: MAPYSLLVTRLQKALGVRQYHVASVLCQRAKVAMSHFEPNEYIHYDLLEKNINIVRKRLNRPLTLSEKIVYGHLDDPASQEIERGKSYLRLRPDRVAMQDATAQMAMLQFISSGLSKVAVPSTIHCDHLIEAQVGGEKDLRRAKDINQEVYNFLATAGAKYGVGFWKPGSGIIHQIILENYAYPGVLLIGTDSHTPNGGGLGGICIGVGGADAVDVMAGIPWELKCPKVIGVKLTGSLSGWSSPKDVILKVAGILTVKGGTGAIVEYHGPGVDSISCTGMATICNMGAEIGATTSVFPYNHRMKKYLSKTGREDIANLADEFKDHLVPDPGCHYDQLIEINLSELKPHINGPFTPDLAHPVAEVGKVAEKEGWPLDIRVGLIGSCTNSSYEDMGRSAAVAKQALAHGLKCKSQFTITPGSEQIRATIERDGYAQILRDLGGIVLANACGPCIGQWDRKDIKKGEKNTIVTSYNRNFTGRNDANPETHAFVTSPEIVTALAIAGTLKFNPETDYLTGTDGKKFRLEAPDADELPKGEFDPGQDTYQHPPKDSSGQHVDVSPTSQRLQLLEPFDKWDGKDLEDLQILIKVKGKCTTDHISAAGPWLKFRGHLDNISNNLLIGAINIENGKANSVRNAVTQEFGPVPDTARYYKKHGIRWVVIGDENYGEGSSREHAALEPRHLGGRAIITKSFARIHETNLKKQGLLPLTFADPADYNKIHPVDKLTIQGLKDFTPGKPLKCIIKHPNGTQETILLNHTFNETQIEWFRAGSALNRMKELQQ

Compound in this test: CC1Cc2ccccc2N1C(=O)C1CCCN(C1)C(=O)CCl (mixture of isomers) [TRIM25 ligand 11 (diastereomer mixture)]
Put plainly: probe-labelled cysteine peptide fold change vs DMSO (competition) (log2 fold change); higher = less target engagement (more negative = stronger competition). As to conditions: THP-1, incubation time: 4 h.

The list shows a part of the results.
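Also: competitive chemoproteomic profiling in live THP-1 cells with an iodoacetamide desthiobiotin (IA-DTB) probe, comparing probe-labelled peptide intensities in compound-treated cells against DMSO-treated controls.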

Regarding “ABR_Q12979_330_HVFLFTDVLLCAK (UniProt Q12979)”, the “probe-labelled cysteine peptide fold change” value (10 µM) was -0.0466 and the “probe-labelled cysteine peptide fold change” value (50 µM) is -0.00591.
The matching figures for “ABHD11_Q8NFV4_135_NHGDSPHSPDMSYEIMSQDLQDLLPQLGLVPCVVVGHSMGGK (UniProt Q8NFV4)”: -0.112 and -0.178.
On to “ABRACL_Q9P1F3_39_CANLFEALVGTLK (UniProt Q9P1F3)”, for which the “probe-labelled cysteine peptide fold change” value (10 µM) is -0.105 and the “probe-labelled cysteine peptide fold change” value (50 µM) was -0.0941.
The matching figures for “AASDHPPT_Q9NRN7_23_WAFSCGTWLPSR (UniProt Q9NRN7)”: -0.0315 and 0.109.
The like results for “ABCE1_P61221_475_VALALCLGK (UniProt P61221)” were, in that order, -0.0455 and 0.0485.
The matching figures for “ACAD9_Q9H845_179_LASGEHIAAFCLTEPASGSDAASIR (UniProt Q9H845)”: 0.158 and 0.157.
With “ACACA_Q13085_1009_CVFALR (UniProt Q13085)”, the “probe-labelled cysteine peptide fold change” value reads like this: (10 µM) 0.11; (50 µM) 0.278.
The like results for “ABR_Q12979_158_EFYDNLCPK (UniProt Q12979)” were, in that order, -0.00352 and -0.0104.
The matching figures for “AAAS_Q9NRG9_279_VWDVSTETCVPLPWFR (UniProt Q9NRG9)”: 0.508 and 0.251.
The like results for “ABCD3_P28288_477_SGANVLICGPNGCGK (UniProt P28288)” were, in that order, -0.00447 and 0.405.
Regarding “ABHD15_Q6UXT9_323_SLREFEEALFCHTK (UniProt Q6UXT9)”, the “probe-labelled cysteine peptide fold change” value (10 µM) was 0.0883 and the “probe-labelled cysteine peptide fold change” value (50 µM) was 0.1.
On to “ACAA1_P09110_177_ARDCLIPMGITSENVAER (UniProt P09110)”, for which the “probe-labelled cysteine peptide fold change” value is -0.0216 (10 µM) and 0.0471 (50 µM).
For “ACACA_Q13085_1769_VSALNSVHCEHVEDEGESR (UniProt Q13085)”, the “probe-labelled cysteine peptide fold change” value (10 µM) stood at 0.042 and the “probe-labelled cysteine peptide fold change” value (50 µM) was -0.0311.
On to “ABCF3_Q9NUQ8_680_ELWVCEGGGVTR (UniProt Q9NUQ8)”, for which the “probe-labelled cysteine peptide fold change” value reads like this: (10 µM) 0.0503; (50 µM) 0.0999.
“ACIN1_Q9UKV3_1223_AAPCIYWLPLTDSQIVQK (UniProt Q9UKV3)”: the “probe-labelled cysteine peptide fold change” value by setting is: (10 µM) -0.0905; (50 µM) -0.186.
The matching figures for “ABCC1_P33527_1047_CLHVDLLHSILR (UniProt P33527)”: -0.0587 and -0.29.
For “ACD_Q96AP0_466_EFVGLPCK (UniProt Q96AP0)”, the “probe-labelled cysteine peptide fold change” value by setting is: (10 µM) -0.0366; (50 µM) -0.177.
The like results for “ACACB_O00763_1429_SLREEPIHILNVSIQCADHLEDEALVPILR (UniProt O00763)” were, in that order, -0.0661 and -0.0522.
The matching figures for “ACAT2_Q9BWD1_158_IGEMPLTDSILCDGLTDAFHNCHMGITAENVAK (UniProt Q9BWD1)”: -0.0888 and -0.138.
The matching figures for “ABHD12_Q8N2K0_323_HISCPLLILHAEDDPVVPFQLGR (UniProt Q8N2K0)”: 0.285 and -0.000338.
“ACBD6_Q9BR61_166_NIFDYCR (UniProt Q9BR61)”: the “probe-labelled cysteine peptide fold change” value reads like this: (10 µM) -0.116; (50 µM) 0.0214.
Consider “ABCF2_Q9UG63_161_TPLHCVMEVDTER (UniProt Q9UG63)”, for which the “probe-labelled cysteine peptide fold change” value is -0.000656 (10 µM) and -0.172 (50 µM).
The like results for “ACAP2_Q15057_10_MTVDFEECLK (UniProt Q15057)” were, in that order, -0.016 and -0.000717.
For “ACOT2_P49753_401_SEFYANEACK (UniProt P49753)”, the “probe-labelled cysteine peptide fold change” value is, setting by setting: (10 µM) -0.0128; (50 µM) -0.2.
The like results for “ACLY_P53396_519_AVQGMLDFDYVCSRDEPSVAAMVYPFTGDHK (UniProt P53396)” were, in that order, -0.331 and -0.255.
The matching figures for “ACAD9_Q9H845_271_GSNTCEVHFENTK (UniProt Q9H845)”: 0.247 and 0.00981.
In the case of “ACADVL_P49748_237_TSAVPSPCGK (UniProt P49748)”, the “probe-labelled cysteine peptide fold change” value (10 µM) is -0.126 and the “probe-labelled cysteine peptide fold change” value (50 µM) was -0.057.
“ABHD6_Q9BV23_217_IPLIPSTPEEMSEMLQLCSYVR (UniProt Q9BV23)”: the “probe-labelled cysteine peptide fold change” value (10 µM) came to 0.278 and the “probe-labelled cysteine peptide fold change” value (50 µM) was 0.0413.
Turning to “ABCA1_O95477_215_SEEMIQLGDQEVSELCGLPR (UniProt O95477)”, the “probe-labelled cysteine peptide fold change” value was -0.251 (10 µM) and -0.196 (50 µM).
The matching figures for “ACAD10_Q6JQN1_197_LCLEQLGLQPSESIFLDDLGTNLK (UniProt Q6JQN1)”: 0.0777 and 0.0233.
As to “ACO2_Q99798_451_DLGGIVLANACGPCIGQWDR (UniProt Q99798)”, the “probe-labelled cysteine peptide fold change” value by setting is: (10 µM) -0.0432; (50 µM) 0.121.
